Experimental data taken from patent US20240190939A1.
Results are given in words; binding and its absence hold for the method and conditions named. Some binding calls cover weakened binding; strength is not graded here. Tags and fused reporters may be left off the sequences shown.

Protein sequences, listed by entry. Tags and fused reporters are not part of them. Lines headed by an entry give the natural chain unless they say otherwise; changes in a name come on top.
UniProt Q92692: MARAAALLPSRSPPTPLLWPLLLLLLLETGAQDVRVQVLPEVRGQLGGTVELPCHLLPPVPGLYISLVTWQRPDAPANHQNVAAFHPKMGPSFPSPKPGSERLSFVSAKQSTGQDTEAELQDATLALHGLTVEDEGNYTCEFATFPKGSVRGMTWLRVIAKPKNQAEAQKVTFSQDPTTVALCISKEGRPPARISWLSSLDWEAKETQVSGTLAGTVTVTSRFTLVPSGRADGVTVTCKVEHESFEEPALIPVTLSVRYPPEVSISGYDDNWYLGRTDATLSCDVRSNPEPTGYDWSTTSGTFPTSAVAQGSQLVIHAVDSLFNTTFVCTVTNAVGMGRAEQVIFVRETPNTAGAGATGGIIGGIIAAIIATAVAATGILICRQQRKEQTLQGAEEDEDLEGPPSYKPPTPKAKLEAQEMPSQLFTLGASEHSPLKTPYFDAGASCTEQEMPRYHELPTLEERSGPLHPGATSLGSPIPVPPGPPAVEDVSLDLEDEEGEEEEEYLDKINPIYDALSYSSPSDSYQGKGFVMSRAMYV
UniProt Q9NQS3: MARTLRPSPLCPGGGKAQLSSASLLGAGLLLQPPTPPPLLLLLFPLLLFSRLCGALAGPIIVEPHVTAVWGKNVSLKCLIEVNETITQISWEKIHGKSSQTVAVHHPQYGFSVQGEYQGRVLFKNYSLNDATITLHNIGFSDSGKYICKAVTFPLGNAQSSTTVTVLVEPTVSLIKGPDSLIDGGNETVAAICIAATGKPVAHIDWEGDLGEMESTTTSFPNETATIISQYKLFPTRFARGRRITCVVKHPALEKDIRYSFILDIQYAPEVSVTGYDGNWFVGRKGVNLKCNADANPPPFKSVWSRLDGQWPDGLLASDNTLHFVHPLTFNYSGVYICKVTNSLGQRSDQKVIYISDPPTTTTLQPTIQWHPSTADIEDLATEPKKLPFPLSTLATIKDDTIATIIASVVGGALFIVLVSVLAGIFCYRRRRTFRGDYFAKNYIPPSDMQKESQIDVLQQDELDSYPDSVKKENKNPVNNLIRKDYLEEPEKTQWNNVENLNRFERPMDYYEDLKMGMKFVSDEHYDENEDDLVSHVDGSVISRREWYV

What was measured:
[1] = molecular target: recombinant CD112 protein (Homo sapiens (Human)) (UniProt Q92692); assay: dual ELISA, OX40-Fc captured, detected with recombinant CD112
[2] = molecular target: recombinant CD113 protein (Homo sapiens (Human)) (UniProt Q9NQS3); assay: dual ELISA, OX40-Fc captured, detected with recombinant CD113
[3] = molecular target: recombinant CD112 protein (Homo sapiens (Human)) (UniProt Q92692); assay: Dual ELISA: OX40-Fc capture, CD112-His detection, 6x His HRP
[4] = molecular target: recombinant CD113 protein (Homo sapiens (Human)) (UniProt Q9NQS3); assay: Dual ELISA: OX40-Fc capture, CD113 detection, 6x His HRP

Measured: binding

B1: human TIGIT-Fc-OX40L chimeric protein (Fc fusion)
chain: MMTGTIETTGNISAEKGGSIILQCHLSSTTAQVTQVNWEQQDQLLAICNADLGWHISPSFKDRVAPGPGLGLTLQSLTVNDTGEYFCIYHTYPDGTYTGRIFLEVLESSVAEHGARFQIPSKYGPPCPPCPAPEFLGGPSVFLFPPKPKDQLMISRTPEVTCVVVDVSQEDPEVQFNWYVDGVEVHNAKTKPREEQFNSTYRVVSVLTVLHQDWLSGKEYKCKVSSKGLPSSIEKTISNATGQPREPQVYTLPPSQEEMTKNQVSLTCLVKGFYPSDIAVEWESNGQPENNYKTTPPVLDSDGSFFLYSRLTVDKSRWQEGNVFSCSVLHEALHNHYTQKSLSLSLGKIEGRMDQVSHRYPRIQSIKVQFTEYKKEKGFILTSQKEDEIMKVQNNSVIINCDGFYLISLKGYFSQEVNISLHYQKDEEPLFQLKKVRSVNSLMVASLTYKDKVYLNVTTDNTSLDDFHVNGGELILIHQNPGEFCVL
binds: all assays above
